Assay results from the supplement of paper PMC11546906.
The list shows a part of the results. Single values are uncertain here, since repeats match poorly.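 FDA-approved drugs were each paired with colistin at one-eighth its MIC and screened against a multidrug-resistant, mcr-1-positive clinical E. coli isolate, with OD600 read after 24 h. Drug-free bacteria served as growth control, plain broth as blank. Combinations were active if OD600 dropped below 0.2.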

tested on: Escherichia coli 42 (mcr-1-positive clinical isolate); experiment: OD600 after 24 h growth with compound plus colistin (absorbance units (OD600)); higher = more bacterial growth (less inhibition); conditions: first compound 25 µM; colistin concentration 0.5 ug/mL; incubation time 24 h; 37 °C

OD600, inactive:
CC(C)(CO)[C@@H](O)C(=O)NCCCO [D-Panthenol] + CCC(C)CCCC(=O)N[C@@H](CCN)C(=O)N[C@H](C(=O)N[C@@H](CCN)C(=O)N[C@H]1CCNC(=O)[C@H]([C@@H](C)O)NC(=O)[C@H](CCN)NC(=O)[C@H](CCN)NC(=O)[C@H](CC(C)C)NC(=O)[C@@H](CC(C)C)NC(=O)[C@H](CCN)NC1=O)[C@@H](C)O [colistin] 1.1
CCCc1cc(=O)[nH]c(=S)[nH]1 [Propylthiouracil] + CCC(C)CCCC(=O)N[C@@H](CCN)C(=O)N[C@H](C(=O)N[C@@H](CCN)C(=O)N[C@H]1CCNC(=O)[C@H]([C@@H](C)O)NC(=O)[C@H](CCN)NC(=O)[C@H](CCN)NC(=O)[C@H](CC(C)C)NC(=O)[C@@H](CC(C)C)NC(=O)[C@H](CCN)NC1=O)[C@@H](C)O [colistin] 1.07
O=c1cc[nH]c(=S)[nH]1 [2-Thiouracil] + CCC(C)CCCC(=O)N[C@@H](CCN)C(=O)N[C@H](C(=O)N[C@@H](CCN)C(=O)N[C@H]1CCNC(=O)[C@H]([C@@H](C)O)NC(=O)[C@H](CCN)NC(=O)[C@H](CCN)NC(=O)[C@H](CC(C)C)NC(=O)[C@@H](CC(C)C)NC(=O)[C@H](CCN)NC1=O)[C@@H](C)O [colistin] 0.808
Nc1ccn([C@@H]2O[C@H](CO)[C@@H](O)[C@@H]2O)c(=O)n1 [Cytarabine] + CCC(C)CCCC(=O)N[C@@H](CCN)C(=O)N[C@H](C(=O)N[C@@H](CCN)C(=O)N[C@H]1CCNC(=O)[C@H]([C@@H](C)O)NC(=O)[C@H](CCN)NC(=O)[C@H](CCN)NC(=O)[C@H](CC(C)C)NC(=O)[C@@H](CC(C)C)NC(=O)[C@H](CCN)NC1=O)[C@@H](C)O [colistin] 0.99
